According to the supplement of paper PMC8728848:
Some of the results follow.

Columns and labels:
Test in all cases: glycan array binding signal (z-score within array); higher = stronger binding
Details in all cases: glycan notation: IUPAC condensed, linker removed
[1] = target: Neu5Ac(a2-6)Gal(b1-4)GlcNAc(b1-2)Man(a1-3)[Neu5Ac(a2-6)Gal(b1-4)GlcNAc(b1-2)Man(a1-6)]Man(b1-4)GlcNAc(b1-4)GlcNAc
Procedure, shortened: (§1)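 The binding signal is a Z-score computed within each array and averaged over linkers. Arrays of the same protein sequence at different concentrations or buffers were also averaged together. Data originate from 3228 arrays in the Consortium for Functional Glycomics database, kept only where the protein sequence was available.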

[2] = target: Neu5Ac(a2-6)Gal(b1-4)GlcNAc(b1-2)Man(a1-6)Man(b1-4)GlcNAc(b1-4)GlcNAc
Procedure, shortened: as §1

[3] = target: Neu5Ac(a2-6)Gal(b1-4)GlcNAc(b1-2)Man(a1-6)[Gal(b1-4)GlcNAc(b1-2)Man(a1-3)]Man(b1-4)GlcNAc(b1-4)GlcNAc
Procedure, shortened: as §1

[4] = target: Neu5Ac(a2-6)Gal(b1-4)GlcNAc(b1-2)Man(a1-6)[GlcNAc(b1-2)Man(a1-3)]Man(b1-4)GlcNAc(b1-4)GlcNAc
Procedure, shortened: as §1

[5] = target: Neu5Ac(a2-6)Gal(b1-4)GlcNAc(b1-2)Man(a1-6)[Man(a1-3)]Man(b1-4)GlcNAc(b1-4)GlcNAc
Procedure, shortened: as §1

[6] = target: Neu5Ac(a2-6)Gal(b1-4)GlcNAc(b1-3)Gal(b1-3)GlcNAc
Procedure, shortened: as §1

[7] = target: Neu5Ac(a2-6)Gal(b1-4)GlcNAc(b1-3)Gal(b1-4)GlcNAc
Procedure, shortened: as §1

[8] = target: Neu5Ac(a2-6)Gal(b1-4)GlcNAc(b1-3)Gal(b1-4)GlcNAc(b1-3)Gal(b1-4)GlcNAc
Procedure, shortened: as §1

[9] = target: Neu5Ac(a2-6)Gal(b1-4)GlcNAc(b1-3)Gal(b1-4)[Fuc(a1-3)]GlcNAc(b1-3)Gal(b1-4)[Fuc(a1-3)]GlcNAc
Procedure, shortened: as §1

[10] = target: Neu5Ac(a2-6)Gal(b1-4)GlcNAc(b1-3)GalNAc
Procedure, shortened: as §1

[11] = target: Neu5Ac(a2-6)Gal(b1-4)GlcNAc6S
Procedure, shortened: as §1

Neu5Ac(a2-6)GalNAc = target: Neu5Ac(a2-6)GalNAc
Procedure, shortened: as §1

[12] = target: Neu5Ac(a2-6)GalNAc(b1-4)GlcNAc
Procedure, shortened: as §1

[13] = target: Neu5Ac(a2-6)GlcNAc(b1-4)GlcNAc
Procedure, shortened: as §1

[14] = target: Neu5Ac(a2-6)GlcNAc(b1-4)GlcNAc(b1-4)GlcNAc
Procedure, shortened: as §1

Neu5Ac(a2-8)Neu5Ac = target: Neu5Ac(a2-8)Neu5Ac
Procedure, shortened: as §1

[15] = target: Neu5Ac(a2-8)Neu5Ac(a2-3)Gal(b1-4)Glc
Procedure, shortened: as §1

[16] = target: Neu5Ac(a2-8)Neu5Ac(a2-3)[GalNAc(b1-4)]Gal(b1-4)Glc
Procedure, shortened: as §1

[17] = target: Neu5Ac(a2-8)Neu5Ac(a2-8)Neu5Ac
Procedure, shortened: as §1

[18] = target: Neu5Ac(a2-8)Neu5Ac(a2-8)Neu5Ac(a2-3)Gal(b1-4)Glc
Procedure, shortened: as §1

[19] = target: Neu5Ac(a2-8)Neu5Ac(a2-8)Neu5Ac(a2-3)[GalNAc(b1-4)]Gal(b1-4)Glc
Procedure, shortened: as §1

[20] = target: Neu5Ac(a2-8)Neu5Ac(a2-8)Neu5Ac(a2-8)Neu5Ac(a2-3)[GalNAc(b1-4)]Gal(b1-4)Glc
Procedure, shortened: as §1

[21] = target: Neu5Ac(b2-6)Gal(b1-4)GlcNAc
Procedure, shortened: as §1

Neu5Ac(b2-6)GalNAc = target: Neu5Ac(b2-6)GalNAc
Procedure, shortened: as §1

[22] = target: Neu5Ac9Ac(a2-3)Gal(b1-3)GlcNAc
Procedure, shortened: as §1

[23] = target: Neu5Ac9Ac(a2-3)Gal(b1-4)GlcNAc
Procedure, shortened: as §1

[24] = target: Neu5Ac9Ac(a2-6)Gal(b1-4)GlcNAc
Procedure, shortened: as §1

[25] = target: Neu5Gc(a2-3)Gal(b1-3)GlcNAc
Procedure, shortened: as §1

[26] = target: Neu5Gc(a2-3)Gal(b1-3)[Fuc(a1-4)]GlcNAc
Procedure, shortened: as §1

Neu5Gc(a2-3)Gal(b1-4)Glc = target: Neu5Gc(a2-3)Gal(b1-4)Glc
Procedure, shortened: as §1

[27] = target: Neu5Gc(a2-3)Gal(b1-4)GlcNAc
Procedure, shortened: as §1

[28] = target: Neu5Gc(a2-3)Gal(b1-4)[Fuc(a1-3)]GlcNAc
Procedure, shortened: as §1

[29] = target: Neu5Gc(a2-6)Gal(b1-4)GlcNAc
Procedure, shortened: as §1

Neu5Gc(a2-6)GalNAc = target: Neu5Gc(a2-6)GalNAc
Procedure, shortened: as §1

[30] = target: Neu5Gc(b2-6)Gal(b1-4)GlcNAc
Procedure, shortened: as §1

B1: SRS2 (Toxoplasma gondii), O15695 (protein)
chain: MATRASLARQKTGAACLAVLTASPSVVAAKPWKRWVGVSVILASAFAVGVSAGPPYRYEPEKFTCRPKKGILSQWVSLLYQVQHNITFACEEATPVPTTLISEEHGLMVCAENMTPEECEANPAPLSAFLPGATKEWVTGDSVLTGLKISVPESQYPANAKSFRVGCRHNTKTGNTCMLTIHVEPRDPAVERQEARCSYTENSTLPKIFVTKDSNTMTLACGPHGAPMPESYTENYCSTPDTCDEKPFTSVIPGYLSKWFFGDPKSPLGARVRIPPEQIPSSPQINYFGCTGPTEGEGPKYNCTVPVPLGGGDPSEGSRPGGGSGGGKRGGGQGGGGSLAGFDFRQGSARHSLPSRMALSASALLAMTALAY
[1]
  glycan array binding signal (z-score): -0.029
[2]
  glycan array binding signal (z-score): -0.221
[3]
  glycan array binding signal (z-score): -0.203
[4]
  glycan array binding signal (z-score): -0.495
[5]
  glycan array binding signal (z-score): 0.39
[6]
  glycan array binding signal (z-score): -0.224
[7]
  glycan array binding signal (z-score): -1.13
[8]
  glycan array binding signal (z-score): -0.155
[9]
  glycan array binding signal (z-score): 0.576
[10]
  glycan array binding signal (z-score): -0.248
[11]
  glycan array binding signal (z-score): -0.529
Neu5Ac(a2-6)GalNAc
  glycan array binding signal (z-score): -0.444
[12]
  glycan array binding signal (z-score): -0.117
[13]
  glycan array binding signal (z-score): -0.439
[14]
  glycan array binding signal (z-score): -0.445
Neu5Ac(a2-8)Neu5Ac
  glycan array binding signal (z-score): -0.204
[15]
  glycan array binding signal (z-score): 0.564
[16]
  glycan array binding signal (z-score): 0.109
[17]
  glycan array binding signal (z-score): -0.03
[18]
  glycan array binding signal (z-score): 0.675
[19]
  glycan array binding signal (z-score): 0.301
[20]
  glycan array binding signal (z-score): -0.082
[21]
  glycan array binding signal (z-score): 0.865
Neu5Ac(b2-6)GalNAc
  glycan array binding signal (z-score): -0.634
[22]
  glycan array binding signal (z-score): -1.14
[23]
  glycan array binding signal (z-score): -0.016
[24]
  glycan array binding signal (z-score): -0.343
[25]
  glycan array binding signal (z-score): -0.209
[26]
  glycan array binding signal (z-score): -0.409
Neu5Gc(a2-3)Gal(b1-4)Glc
  glycan array binding signal (z-score): -0.697
[27]
  glycan array binding signal (z-score): -0.295
[28]
  glycan array binding signal (z-score): -0.229
[29]
  glycan array binding signal (z-score): -0.03
Neu5Gc(a2-6)GalNAc
  glycan array binding signal (z-score): -0.068
[30]
  glycan array binding signal (z-score): -0.695
